According to PubChem BioAssay AID1458 (National Center for Advancing Translational Sciences (NCATS), 2008):
About 5,900 (2.8%) of roughly 210,000 compounds were called active. Inconclusive results (about 5%) are left out. The call rests on the fitted dose curve; in most records, active means well fitted activation curve with a large enough effect; inconclusive means small, poorly fitted or top-dose-only effect; inactive means no such curve, though single readings can be large or run the other way. This is a selection; strong and weak results do not stand in their true shares. Entries without a call were filed so in the source.

experiment: qHTS Assay for Enhancers of SMN2 Splice Variant Expression; settings: HEK293 SMN2-luciferase splicing reporter, luminescence, 30-36 h; activity change, positive = activation: at 46.1 µM (top of the series) unless noted; further: nearly all actives have a fitted effect of over 55% in size; on activity change, positive = activation: % of control where 0% means no effect
Excerpt: NIH Chemical Genomics Center [NCGC] NIH Molecular Libraries Probe Production centers Network [MLPCN] MLPCN Grant: R03 MH084179-01 Assay Submitter (PI): Elliot Androphy NCGC Assay Overview: Spinal muscular atrophy (SMA) is caused by insufficient levels of the survival motor neuron protein SMN. The SMN locus on chromosome 5q13 contains two inverted copies of SMN called SMN1 and SMN2 which are 99% identical at the amino acid level. SMN1 is a fully functional protein and SMN2 skips exon 7 90% of the time. Skipping of exon 7 produces non-functional protein product. 10% of the SMN2 protein includes exon 7 and is fully functional. In the SMA disease state, mutations in the SMN1 locus are the cause of the disease state. Because only 10% of SMN2 is of the fully functional form, it is not sufficient to overcome the deficiency produced by the loss of the SMN1 product. A therapy that either increase the amount of SMN2 product made or to increase the inclusion of exon 7 has been proposed for the treatment of SMA. We have designed an assay to identify small molecules that can increase the amount of functional SMN2 product by appending a luciferase reporter gene after the native SMN2 gene, such that inclusion of exon 7 in the expressed product places the luciferase sequence in frame, thus generating functional luciferase enzyme.
NCGC Assay Protocol Summary: This screen utilizes a luciferase reporter gene assay, combining the promoter and splicing based cassettes in tandem with the major portion of the native SMN2 cDNA, and then transfected into HEK293 cells. Compounds that increase luciferase signal presumably enhance expression of the functional SMN2 splice variant. Passaging media contained DMEM w/ glutamax (+phenol red) 10% FCS, 1x pen/strep, 200 ug/ml hygro, 1x sodium pyruvate. Assay media contained DMEM w/ glutamax (-phenol red) 10% FCS, 1x pen strep, 1x pyruvate Sequence, Parameter, Value, Description (1) Cells, […], 2000 cells/well, 1536 TC treated White solid bottom plate (2) Time, 10-12 hours, 37C 5% CO2 (3) Compound, 23 nl, MLSMR Library (4) Control Compound, 23 nL, Sodium butyrate st 4.5mM (final) conc (5) Time, 30-36 hours, 37C 5% CO2 (6) Reagent, 3 ul, One Glo (TM) from Promega (7) Time, 5-15 minutes, Room temp (8) Detector, Viewlux: luminescent read, 60 second integration, high speed 2x binning Keywords: Spinal muscular atrophy, SMA, SMN2, high throughput screening, MLSMR, MLPCN, NIH Roadmap, qHTS and NCGC
Potency means the concentration at half of the fitted maximal effect.

Structure (SMILES)	Potency	activity change, positive = activation
CCn1nnc(NC(=O)c2cc3ccccc3o2)n1	active: 31.6 µM	–
CC1(C)CC2CC(C)(CN2S(=O)(=O)c2ccc(C(=O)Nc3cc(S(=O)(=O)N4CCOCC4)ccc3Cl)cc2)C1 (centres undefined)	–	-39.7%
CC1Cc2ccccc2C(=O)N1 (centres undefined)	–	38.3%
CC1=C(C(=O)OC(C)C)C(C)NC(=O)N1 (centres undefined)	–	33.6%
CN(C)C(CNC(=O)CCCOc1ccccc1)c1ccco1 (centres undefined)	–	44.5%
CN(C)c1ccc(NC(=O)Nc2cccc(Cl)c2)cc1	active: 12.6 µM	–
O=C(NC1CCCC1)C(c1cccnc1)N(C(=O)c1csnn1)C1CC1 (centres undefined)	–	23.4%
COC(=O)C1=C(C)NC(C)=C(C(=O)OC)C1c1ccc(N(C)C)cc1	–	37.6%
O=CN1CCN(C(=O)c2ccc(-c3nc4ccccc4s3)s2)CC1	–	46.3%
COc1ccc(C(=O)Nc2nc3ccccc3[nH]2)cc1S(=O)(=O)N1CCCC1	–	inactive: 18.5%
CCOc1ccc(C2C(C#N)=C(N)Oc3cc(C)n(Cc4ccco4)c(=O)c32)cc1OC (centres undefined)	–	53.9%
C/C(N)=C(/C#N)C(=O)CSc1nnc(-c2ccc3c(c2)OCO3)o1	active: 1.12 µM	–
NCC(O)COCCC12CC3CC(CC(C3)C1)C2 (centres undefined)	–	33.2%
CCOC(=O)Cc1csc(SCC(=O)Nc2cc(Cl)ccc2Oc2ccccc2)n1	–	29.2%
COc1cccc(NS(=O)(=O)c2ccc3[nH]cc(C(=O)NCCC(C)C)c(=O)c3c2)c1	–	inactive: -51.5%
COC(=O)C1=CN(C)C=C(C(=O)OC)C1c1ccsc1	–	37.6%
Brc1ccc(-c2nc3ccccc3s2)s1	active: 14.1 µM	–
CCOC(=O)C1=C2N(C)c3ccccc3N2CCC1=O	–	32.6%
COc1ccc(C(=O)N2CCC(n3c(C)nc4cc(F)ccc43)CC2)cc1	–	inactive: -57.3%
Oc1c(C=Nc2cccc3nsnc23)ccc2ccccc12	–	30.3%
COc1ccc(S(=O)(=O)NCc2ccco2)cc1-c1nnc2c3ccccc3c(C)nn12	–	44.3%
CCCOc1ccc(C(CC(=O)O)NC(=O)c2sc3ccccc3c2Cl)cc1 (centres undefined)	–	-43.2%
O=C(CCCC(=O)N/N=C\c1ccccn1)N/N=C\c1ccccn1	–	-3.98%
O=C(Nc1ccc(-c2cn3ccsc3n2)cc1)c1ccc(F)c(S(=O)(=O)N2CCOCC2)c1	–	inactive: -71.3%
CN=c1scc(-c2ccc([N+](=O)[O-])cc2)n1/N=C/c1ccco1	–	44%
CCc1ccc(NC(=O)c2ccc(-c3ccccc3)s2)cc1	–	36.7%
CCCCOc1ccc(Cc2n[nH]c(=S)n2N)cc1	–	-40.7%

Single records, from the list above:
Oc1c(C=Nc2cccc3nsnc23)ccc2ccccc12 in the list: activity change, positive = activation: 30.3%
CN(C)c1ccc(NC(=O)Nc2cccc(Cl)c2)cc1 in the list: Potency: active: 12.6 µM
CC1Cc2ccccc2C(=O)N1 (centres undefined) in the list: activity change, positive = activation: 38.3%
CCCCOc1ccc(Cc2n[nH]c(=S)n2N)cc1 in the list: activity change, positive = activation: -40.7%

The list continues.

Structure (SMILES)	Potency	activity change, positive = activation
CCC(=O)c1ccc(OCC(O)CN2CCN(S(=O)(=O)N3CCCCC3)CC2)cc1 (centres undefined)	–	-33.8%
NC(=O)C1(N2CCCCC2)CCN(c2nc(-c3ccccc3)cs2)CC1	–	-44.3%
COc1ccc(NC(=O)c2cc(C)on2)cc1OC	–	41.5%
Cc1ccnc2ccc(-c3nc4ccccc4o3)cc12	active: 17.8 µM	–
CCC(=O)NCCc1nc2cc(NC(=O)c3ccccc3OC)ccc2n1C	–	97.4%
Cc1nn(-c2ccccc2)c2sc(C(=O)N3CCOCC3)cc12	active: 11.2 µM	–
CC(C)C(=O)Nc1cccc(C(=O)Nc2nnc(C(C)C)s2)c1	active: 11.2 µM	–
Nc1nc(NC(=O)CCCC(=O)O)nn1-c1ccccc1	–	36.6%
O=C(Nc1cccc(-c2cn3ccccc3n2)c1)c1cccs1	–	44.5%
O=C(NC(=S)Nc1ccc(N2CCCCC2)c(Cl)c1)c1ccc2c(c1)OCCO2	–	inactive: -54%
CN(C)/C=C1\N=C(c2ccccc2)OC1=O	–	inactive: 7.9%
COCCOC(=O)c1[nH]c2c(c1C)C(=O)C(C(=O)OC)C(C)C2 (centres undefined)	active: 11.2 µM	–
CCCC(=O)Nc1ccccc1-c1nnn(CC(=O)Nc2ccc(OCC)cc2)n1	–	inactive: -44.8%
CCc1nn(CC(=O)NC2CC2)c(=O)c2cc3ccccc3n12	–	50.2%
Cn1ncc(N=Cc2ccccc2)c1C(N)=O	–	46.4%
COc1ccc2[nH]c(C)c(CCNC(=S)Nc3ccccc3OC)c2c1	–	inactive: -30.6%
C=CCNC(=O)c1cc(-c2ccccc2O)on1	–	230%
CC(=O)NNc1ncnc2c1cnn2-c1ccc(C)cc1	–	37.6%
COc1cccc(-c2nc3sc4c(c3c(=O)[nH]2)CCCCC4)c1	active: 0.891 µM	–
CCc1cc2c(Sc3nc4ccccc4s3)ncnc2s1	–	-59.8%
CCOc1cccc(C(=O)NC(=S)Nc2ccc3c(c2)OCCO3)c1	–	inactive: 30.3%
O=C1Nc2ncccc2OC1CCO (centres undefined)	–	-32.9%
CC/C(=N\NC(=O)c1c[nH]c2ccccc12)c1cccs1	active: 17.8 µM	–
Cc1ccc(NC(=O)/C(=C/c2cccc(Br)c2)NC(=O)c2ccco2)cc1	–	7.78%
O=C(Nc1ccc(-c2nc3ccccc3o2)cc1)C1CCCO1 (centres undefined)	active: 7.94 µM	–
CC(NC(=O)c1ccco1)C(c1cccs1)N1CCN(c2ccccc2F)CC1 (centres undefined)	–	-76.7%
O/N=C/c1ccc(OCc2ccccc2)c(Cl)c1	active: 11.2 µM	–
